Hit rate of the full screen: of about 390,000 compounds, about 610 (0.16%) were called active. The shares of active, inactive and inconclusive entries below differ from those in the screen. The call rests on the fitted dose curve; in most records, active means well fitted inhibition curve with a large enough effect; inconclusive means small, poorly fitted or top-dose-only effect, or effect the other way, or another doubt; inactive means no such curve, though single readings can be large or run the other way. Potencies of inconclusive entries are doubtful fits and often do not repeat.
Experiment: Nrf2 qHTS screen for inhibitors: counterscreen for cytotoxicity
Conditions: A549 ARE-Fluc cells, CellTiter-Fluor viability, 18-24 h; activity change, negative = cytotoxicity: at 46 µM (top of the series)
In short: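 A549 ARE-Fluc cells in 5% FBS OPTI-MEM, 5000 cells/well, rested 2 h then exposed to compounds in concentration-response for 18-24 h at 37 °C. Viability by CellTiter-Fluor fluorescence (Ex 405/Em 525) after 30 min; luciferase luminescence (BugLite, 15 min, RT) read afterwards.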
On the % scale 0 is the no-effect control and ±100 the full control effect; potency means the concentration at half of the fitted maximal effect.

SMILES	Potency	activity change, negative = cytotoxicity
Cc1nn(-c2ccccc2)c(C)c1/C=N/NC(=O)c1cc(-c2cccs2)[nH]n1	inconclusive: 5.17 µM [falling, partial curve, poor fit]	
CC(=O)N1N=C(c2ccc(Cl)cc2)OC12CCCC2	inconclusive: 5.17 µM [activator, single point]	
C/C(=N\NC(=O)c1nc2ccccn2c1C)c1ccc2c(c1)OCO2		inactive: 3.71%
COP(=O)(OC)c1ccc(NCc2cc(O)ccc2O)cc1	inconclusive: 3.26 µM [activator, partial curve, poor fit]	
Cc1cccc(NC(=O)CCSc2nncn2C)c1	inconclusive: 29.1 µM [activator, partial curve, poor fit]	
COc1ccc2c(c1)CCc1c(C(=O)Nc3cc(C)n(Cc4ccc(Cl)cc4)n3)noc1-2		inactive: 10.8%
Nc1ccc(OC(=O)Nc2ccc(O)cc2)cc1		inactive: -6.49%
CCC(CO)Oc1cc(NCc2ccccc2Cl)c2ncn(C(C)C)c2c1 (stereo not given)	inconclusive: 20.6 µM [falling, single point]	
Cc1ccc(OCC(=O)N2CCN(c3nnc(-c4ccccc4)c4ccccc34)CC2)cc1	inconclusive: 18.4 µM [falling, single point]	
CCOC(=O)/C(C#N)=C/C1=C(N2CCCC2)CC(C)(CC)OC1 (stereo not given)	inconclusive: 14.6 µM [falling, partial curve]	
CC(=O)c1cccc(NC(=O)NCc2cccnc2)c1	inconclusive: 8.2 µM [activator, partial curve, poor fit]	
CCCCNc1nc(Oc2ccc(=O)n(C)n2)nc(N(C)C)n1		inactive: 0.0377%
COc1ccccc1C(=O)Oc1ccc2c(c1)O/C(=C\c1ccncc1)C2=O		inactive: 4.22%
CCN1C(=O)[C@@H]2[C@@H](c3ccc(-c4ccccc4)cc3)N3CCC[C@@]3(C(=O)OC)[C@@H]2C1=O		inactive: -5.53%
COc1ccccc1-c1noc(CSc2nc3ccc(C)cc3[nH]2)n1		inactive: 2.18%
O/N=C1/CCCSc2ccccc21	inconclusive: 32.6 µM [activator, partial curve, poor fit]	
CC1CC(C)CN(CCCNC(=O)COc2cc(=O)n(C)c3ccccc23)C1 (stereo not given)	inconclusive: 23.1 µM [activator, single point]	
COc1ccc(C(=O)c2cn(Cc3ccc(C)cc3)c3cc4c(cc3c2=O)OCO4)cc1	inconclusive: 18.4 µM [falling, partial curve]	
COc1ccc(N=C2C(=Nc3ccc(OC)cc3)N(c3ccc(OC)cc3)C(=S)N2C)cc1	inconclusive: 20.6 µM [falling, single point]	
CC(OC(=O)c1ccc(S(=O)(=O)N2CCCCC2)cc1)C(=O)Nc1ccc(C(N)=O)cc1 (stereo not given)		inactive: 0.0488%
COC(=O)c1scc(-c2ccc(C)cc2)c1S(=O)(=O)Nc1cccc(C(F)(F)F)c1		inactive: 2.28%
COc1cc(/C=N/NC(=O)Cc2ccccc2)cc([N+](=O)[O-])c1O	inconclusive: 13 µM [falling, partial curve, poor fit]	
O=C(CSc1cn(CC(=O)N2CCCCCC2)c2ccccc12)Nc1ccccc1F		inactive: -10.6%

Part of the list above, with each value named:
Cc1ccc(OCC(=O)N2CCN(c3nnc(-c4ccccc4)c4ccccc34)CC2)cc1
  Potency: inconclusive: 18.4 µM [falling, single point]
CCOC(=O)/C(C#N)=C/C1=C(N2CCCC2)CC(C)(CC)OC1 (stereo not given)
  Potency: inconclusive: 14.6 µM [falling, partial curve]

(listing goes on)

SMILES	Potency	activity change, negative = cytotoxicity
CC(NC(=O)OC(C)(C)C)C(=O)NC(CCC(=O)OCc1ccccc1)C(N)=O (stereo not given)		inactive: -0.134%
Cc1cccc(NC(=O)C(C)Sc2nc3ccccc3c(=O)n2CCCN2CCOCC2)c1 (stereo not given)	inconclusive: 13 µM [falling, partial curve, poor fit]	
C=C(C)COc1ccc(-c2[nH]ncc2-c2ccc(Br)cc2)c(O)c1		inactive: 7.32%
CSc1nccc(-c2nn(-c3ccc(C)cc3)ccc2=O)n1	inconclusive: 4.11 µM [falling, partial curve, poor fit]	
CCOc1cc(/C=C(\C#N)c2nc(-c3cccs3)c(NC(C)=O)s2)ccc1O	inconclusive: 32.6 µM [falling, partial curve, poor fit]	
O=S(=O)(c1ccc2ccccc2c1)n1nc(-c2ccco2)nc1NCc1cccc(Cl)c1		inactive: 3.36%
CC1CCC(C(C)C)C(OCC(O)CNC(C)c2ccccc2)C1 (stereo not given)	inconclusive: 29.1 µM [falling, single point]	
Cc1cccc(/C=N/n2c(-c3ccccc3)n[nH]c2=S)c1O		inactive: 2.77%
CSc1ccccc1NC(=O)Cn1ccsc1=N		inactive: -0.124%
CC(C(=O)Nc1ccc2nccnc2c1)N1C(=O)C2C3C=CC(C3)C2C1=O (stereo not given)	inconclusive: 20.6 µM [falling, single point]	
Cc1cc(C)n(-c2nnc3n2N=C(c2c[nH]c4ccccc24)CS3)n1	inconclusive: 16.4 µM [falling, partial curve, poor fit]	
COC(=O)c1nnn(-c2nonc2N)c1CN1CCc2ccccc21	inconclusive: 18.4 µM [falling, partial curve, poor fit]	
CCOc1cc(/C=C/c2ccc3cccc([N+](=O)[O-])c3n2)cc(Cl)c1O		inactive: -23.8%
Cn1nnnc1Sc1ncnc2scc(-c3ccc(Br)cc3)c12	inconclusive: 29.1 µM [falling, single point]	
Cc1ccc(S(=O)(=O)c2c(N)n(/N=C/c3ccco3)c3nc4ccccc4nc23)cc1		inactive: -4.55%
CCc1ccc(NC(=O)CSc2nnc(C3CC3)n2CC2CCCO2)cc1 (stereo not given)	inconclusive: 25.9 µM [falling, single point]	
CCC(=O)Nc1nc(-c2ccc3c(c2)OCCO3)cs1		inactive: 15.8%
Cc1ccc2nc3c(cc(C(=O)NCCCn4ccnc4)n3C)c(=O)n2c1	inconclusive: 20.6 µM [activator, single point]	
O=C(Cc1ccc(F)cc1)N1CCC2(CC1)NCCc1[nH]cnc12	inconclusive: 6.51 µM [activator, single point]	
Nc1ccc(N=Nc2ccccc2)c2cccnc12	inconclusive: 14.6 µM [falling, partial curve, poor fit]	
O=C(Nc1ccc(N=Nc2ccccc2)c(NC(=O)C2CCCO2)c1)C1CCCO1 (stereo not given)	inconclusive: 14.6 µM [falling, single point]	
CCOC(=O)C1=C(C)N=c2s/c(=C\c3ccc(OCC(=O)O)cc3)c(=O)n2C1c1ccc(Cl)cc1 (stereo not given)	inconclusive: 14.6 µM [falling, partial curve, poor fit]	

Source: PubChem BioAssay AID504648 (National Center for Advancing Translational Sciences (NCATS), 2011)
